# Experimental data reported in publication PMC3162612, “RssAB Signaling Coordinates Early Development of Surface Multicellularity in Serratia marcescens” (PLoS ONE, 2011).
# Molecular target: T1, GST-tagged RssB, pretreated with acetyl-phosphate (Serratia marcescens) (UniProt Q8GP20)
# T1 sequence (chain, phosphorylated with acetyl-phosphate (RssB~P)): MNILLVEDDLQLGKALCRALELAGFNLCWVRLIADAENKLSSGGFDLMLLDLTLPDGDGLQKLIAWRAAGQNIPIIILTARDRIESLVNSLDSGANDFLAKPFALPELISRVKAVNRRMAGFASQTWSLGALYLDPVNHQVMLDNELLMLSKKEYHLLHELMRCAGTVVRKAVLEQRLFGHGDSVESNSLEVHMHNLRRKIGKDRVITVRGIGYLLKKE
# Assay: pull-down; GST, GST-RssB or GST-RssB D51E pretreated with acetyl-phosphate, incubated with His-cRssA and glutathione sepharose-4B in interaction buffer (20 mM Tris-HCl pH 7.5, 10 mM MgCl2, 100 mM KCl), 4°C 1 hr; washed; SDS-PAGE, Coomassie stain and anti-hexa-histidine blot; both purified
substance,measurement,value
poly histidine-tagged cytoplasmic region of RssA (from UniProt Q8GP19) (domain or fragment),binding,binds

# These are yes or no findings as the source states them, for the method shown. Binding calls can cover weak binding; strength is not graded here. Where a sequence is shown, tags or fusion partners need not be part of it.
